# Where two headings read alike, the source gives them in different places. At least one compound was matched to its structure with a doubt left.
# Assays:
# ES2-shCon xenografts = assay: Subcutaneous tumor xenograft model; format: in vivo, mice; details: teriflunomide 4 mg/kg intraperitoneally every other day versus vehicle
# [1] = tested on: ARID1A-deficient SKOV3 tumor xenograft; assay: Subcutaneous tumor xenograft model, survival; format: in vivo, mice; details: teriflunomide 4 mg/kg every other day versus vehicle
# ES2-shARID1A xenografts = format: in vivo; details: for Tumor xenograft growth: teriflunomide 4 mg/kg intraperitoneally every other day versus vehicle
# Experimental: Animal Model. All animal procedures were conducted in accordance with a protocol approved by the Institutional Animal Care and Use Committee at Yale University.
# Three mouse experiments were performed: (i) to assess an effect of teriflunomide on ES2 cells in vivo, (ii) to assess an effect of teriflunomide on SKOV3 cells in vivo, and (iii) to assess a combination effect of teriflunomide and AZD6738 on ES2-shARID1A cells in vivo. All experiments were performed using subcutaneous cell-xenograft models generated by injecting cells into the flanks of 6-week-old female athymic NCr-nu/nu mice (Charles River Laboratories).
# Animal-human dose translation was calculated as previously described^24. Tumor volumes were measured every other day by caliper to determine tumor volume using the formula (length/2)×(width^2). […] Experiments were terminated when mean tumor volume of a vehicle ES2-shCon group reached 1000 mm^3. Tumor xenografts were excised at time of euthanasia. Representative samples were flash-frozen in liquid nitrogen for subsequent protein expression analysis by immunoblotting, as well as being formalin-fixed paraffin-embedded (alternatively, FFPE) for subsequent hematoxylin and eosin staining and immunohistochemical analysis. FFPE sections were reviewed by a pathologist (alternatively, P.H.), and cellular necrosis was quantified as % cross-sectional area of bisected tumor xenografts.
# (i) To assess the effect of teriflunomide on ES2 cells, xenograft models were generated by injecting ES2-shCon or ES2-shARID1A cells (1×10^6 cells) subcutaneously. When mean tumor volume reached approximately 100 mm^3, animals were randomized into treatment groups; mice with xenograft volume <20 mm^3 or >160 mm^3 were excluded. Teriflunomide was solubilized in DMSO and diluted to 0.5 mg/mL with PBS. Treatment with teriflunomide or vehicle was initiated 24 h after tumor injection. […]
# P-CHK1 Ser345 = assay: Immunoblot of phosphorylated CHK1 in ES2 cell lysates; format: cell-based, human; details: ES2 cells; teriflunomide 15 μM, AZD6738 1.5 μM
# Experimental: (§1) Immunoblot Analysis and Co-Immunoprecipitation Assay. For immunoblotting experiments, cells were lysed in BC200 lysis buffer [20 mM Tris-HCl (pH 7.5), 200 mM NaCl, 1 mM EDTA, 0.2% Nonidet P-40 (NP-40), freshly added complete protease inhibitor cocktail (from Roche), and PhosSTOP phosphatase inhibitor (from Roche)] or in boiling SDS lysis buffer [1% SDS and 10 mM Tris-CI (pH 7.5)], as previously described^21. Protein concentrations were quantified using a modified Lowry assay, and equal protein amounts were loaded onto a 10% SDS-PAGE gel and separated by gel electrophoresis, followed by transfer to a nitrocellulose membrane. The nitrocellulose membrane was stained with Ponceau S to confirm equal protein loading and then blocked in 2% BSA in Tris-buffered saline with 0.1% Tween-20 (tris buffered saline with tween, or TBST). Primary antibody incubation was done for 2 h at room temperature or, for phospho-specific antibodies, overnight at 4° C. An HRP-conjugated secondary antibody was used, followed by detection using enhanced chemiluminescence substrate (from Pierce). Autoradiograph images were scanned and saved as unmodified TIFF images, and densitometry analysis was done with ImageJ (from NIH) software.
# [2] = tested on: ES2 ARID1A-knockdown cells (shARID1A); assay: Cell growth after 72 h drug treatment, ARID1A-knockdown versus control cells; format: cell-based, human; details: 72 h treatment; compared to untransfected or shCon ES2 cells
# Experimental: (§2) Short Hairpin RNA (shRNA)-Mediated Knockdown and Expression of ARID1A in ovarian and endometrial carcinoma cells. shRNA lentiviral supernatants were produced using standard protocols, as previously described^8. Vectors were transfected into HEK293FT cells using X-tremeGENE 9 DNA Transfection Reagent (from Roche). Retroviral supernatants isolated at 48 h were diluted 1:1 in culture medium and used to infect ARID1A-wildtype ES2 and KLE cell lines. Stably transfected subclones were expanded using puromycin (from Dot Scientific) drug selection. For expression of ARID1A in the ARID1A-mutant HEC-1-A cell line, pCIN4-HA-ARID1A was transfected using X-tremeGENE 9 DNA Transfection Reagent (from Roche), followed by selection with G418 (from Gibco). For expression of ARID1A in the ARID1A-mutant SKOV3 and OVISE cell lines, V5/His-tagged pLenti-puro-LacZ and pLenti-puro-ARID1A were transfected using lentivirus. […]
# (§3) Cytotoxicity assay. […] Cell number was determined using a sulforhodamine B (SRB) assay, as previously described^23. […] After washing, protein-bound dye was solubilized with 10 mM unbuffered Tris-base solution (pH 10.5) and detected at 510 nm using a microplate reader. Percentage of cell-growth was calculated using the following formula: % cell growth=[(Absorbance sample)/(Absorbance untreated)]×100 […]
# [3] = tested on: SKOV3 ARID1A-restoration cells; assay: Cell growth after drug treatment, ARID1A-restoration versus uninduced cells; format: cell-based, human; details: SKOV3, Dox-induced ARID1A versus uninduced cells
# γ-H2AX = assay: Immunoblot and immunofluorescence of γ-H2AX in ES2 cells; format: cell-based, human; details: ARID1A-knockdown ES2 cells; teriflunomide 15 μM, AZD6738 1.5 μM, VX-970 0.075 μM; 24-72 h
# Experimental: as §1
# Immunofluorescence. […] Images of cells were acquired using a BZ-X710 fluorescence microscope (from KEYENCE) and analyzed using ImageJ (from NIH).
# [4] = tested on: ARID1A-knockout HCT116 cells; assay: Cell growth after 72 h drug treatment, ARID1A-knockout versus wild-type cells; format: cell-based, human; details: 72 h treatment; compared to ARID1A wild-type HCT116 control cells
# Experimental: Cell Lines. Adherent cell lines were cultured in RPMI 1640 (from Gibco) supplemented with 10% fetal bovine serum (from Gibco) and 1% penicillin-streptomycin (from Gibco) at 37° C., 5% CO2. Low-passage-number cells were used, and all cell lines tested negative for mycoplasma using the MycoAlert Mycoplasma Detection Kit (from Lonza). The following ovarian and endometrial cancer cell lines were used: ES26, KLE5, SKOV3, OVISE (from JCRB Cell Bank), and HEC-1-A5 cells and their stably transfected subclones, as described below. Cell lines were authenticated using the GenePrint10 kit (form Promega) and matching to their original profiles (at ATCC). ARID1A protein expression status was confirmed by immunoblotting. HEK293FT cells were from Thermo Fisher Scientific. ARID1A-knockout HCT116 (homozygous truncating mutations, Q456*/Q456*) and ARID1A-wildtype HCT116 colorectal carcinoma cells were from Horizon Discovery.
# as §3, with “assay. Cells were seeded in 96-well plates, with 2000 cells in 100 μL/well, and cultured for 24 h.” for “assay.”
# [5] = tested on: ARID1A-restoration OVISE cells (ARID1A Dox); assay: Cytotoxicity (SRB) assay with CalcuSyn combination analysis; format: cell-based, human; details: Dox-induced ARID1A versus uninduced or control cells, 72 h
# Experimental: as §2, with “Gibco).” for “Gibco). For expression of ARID1A in the ARID1A-mutant SKOV3 and OVISE cell lines, V5/His-tagged pLenti-puro-LacZ and pLenti-puro-ARID1A were transfected using lentivirus.”
# as §3
# CIwt<0.8, =0.8 to 1.2, and >1.2 indicates synergism, an additive effect, and antagonism, respectively. […] Datasets from at least three independent experiments were combined, and means±SD were calculated for each combination. […]
smiles,measurement,setting,value
"C/C(O)=C(\C#N)C(=O)Nc1ccc(C(F)(F)F)cc1 [Teriflunomide, teriflunomide]",Tumor xenograft growth,ES2-shCon xenografts,Tumor volumes were similar
same,Animal survival,[1],significantly improved the animal survival
same,Tumor xenograft growth,ES2-shARID1A xenografts,effectively inhibited tumor growth
same,Tumor xenograft growth,ES2-shARID1A xenografts; listed as teriflunomide,selectively suppressed tumor growth
same,Mean cellular necrosis (% cross-sectional area of bisected tumor xenograft),"ES2-shARID1A xenografts; teriflunomide-treated shARID1A versus teriflunomide-treated shCon xenografts, six doses",significantly higher
same,Phosphorylation of CHK1 on serine 345,P-CHK1 Ser345,robust increase
same,Drug sensitivity of ARID1A-knockdown ES2 cells,[2],significantly more sensitive
same,Drug resistance of ARID1A restoration cells,[3],more resistant
same,γ-H2AX protein levels,γ-H2AX,increased
same,Drug sensitivity of ARID1A-knockout HCT116 cells,[4],more sensitive
same,Drug resistance of ARID1A restoration cells,[5],more resistant
